No constants are given. Whether binding was seen depends on the method and setting. In cells and extracts the contact can be indirect. Binding can be weak; no strength is given.
Columns and labels:
[1] = biological target: V5-tagged EML4-Alk v1 ΔTD mutant (trimerization domain deleted); test: co-IP; V5 immunoprecipitation (antibody-loaded agarose beads, 4 °C overnight) from RIPA lysates of Beas2B cells transfected with V5-tagged EML4-Alk v1 full length or ΔTD; blots for endogenous proteins
[2] = biological target: V5-tagged EML4-Alk variant 1 (v1), full length; test: as above

B1: YWHAG (14-3-3 protein) (protein, UniProt P61981 1-247)
chain: MVDREQLVQKARLAEQAERYDDMAAAMKNVTELNEPLSNEERNLLSVAYKNVVGARRSSWRVISSIEQKTSADGNEKKIEMVRAYREKIEKELEAVCQDVLSLLDNYLIKNCSETQYESKVFYLKMKGDYYRYLAEVATGEKRATVVESSEKAYSEAHEISKEHMQPTHPIRLGLALNYSVFYYEIQNAPEQACHLAKTAFDDAIAELDTLNEDSYKDSTLIMQLLRDNLTLWTSDQQDDDGGEGNN
binding [1]: binds
binding [2]: binds

From paper PMC11631767
